Reference: the supplement of paper PMC10735217
Some of the results follow. Single values are uncertain here, since repeats match poorly.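 In a drug-repurposing library screen, luminescence reads luciferase driven by eight TEAD-binding elements, stably integrated into human kidney-derived cells. Compounds scoring over five robust Z scores above the plate mean are called hits.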

Tested on: HEK293A TEAD-LUC reporter
Experiment: TEAD-luciferase reporter activity (YAP activation), robust Z score vs plate; higher = stronger YAP/TEAD activation
Details: 24 h

Cc1ccccc1-c1nc(N2CCN(C)CC2)ncc1N(C)C(=O)C(C)(C)c1cc(C(F)(F)F)cc(C(F)(F)F)c1
TEAD-luciferase reporter activity (compound concentration: 200 nM): inactive: -0.63
TEAD-luciferase reporter activity (compound concentration: 2 uM): inactive: 2.45
TEAD-luciferase reporter activity (compound concentration: 10 uM): inactive: 0.673

CCCC(=O)N1Cc2ccccc2CC2(CCCCN2CC2CCOCC2)C1 (centres undefined)
TEAD-luciferase reporter activity (compound concentration: 200 nM): inactive: -1.17
TEAD-luciferase reporter activity (compound concentration: 10 uM): inactive: 2.38

C[C@H](NCc1ccc(OCc2ccccc2F)cc1)C(N)=O [ralfinamide]
TEAD-luciferase reporter activity (compound concentration: 2 uM): inactive: 0.247

C[C@H](NCc1ccc(OCc2ccccc2F)cc1)C(N)=O
TEAD-luciferase reporter activity (compound concentration: 200 nM): inactive: -0.635
TEAD-luciferase reporter activity (compound concentration: 10 uM): inactive: 4.47

CC(C)CNCCCC(O)(c1ccccc1)c1ccccc1
TEAD-luciferase reporter activity (compound concentration: 200 nM): inactive: 0.277
TEAD-luciferase reporter activity (compound concentration: 2 uM): inactive: -0.0501
TEAD-luciferase reporter activity (compound concentration: 10 uM): inactive: 0.0606

CNC(=O)[C@H](C/C=C/c1ccc(N(C)c2ncccn2)cc1)NC(=O)Cc1ccccc1
TEAD-luciferase reporter activity (compound concentration: 200 nM): inactive: -0.0827
TEAD-luciferase reporter activity (compound concentration: 2 uM): inactive: -0.315
TEAD-luciferase reporter activity (compound concentration: 10 uM): inactive: -0.168

COc1ccccc1Oc1cnc(-c2ncccn2)nc1NS(=O)(=O)/C=C/c1ccccc1
TEAD-luciferase reporter activity (compound concentration: 200 nM): inactive: -0.391
TEAD-luciferase reporter activity (compound concentration: 2 uM): inactive: -1.94
TEAD-luciferase reporter activity (compound concentration: 10 uM): inactive: -2.62

CS(=O)(=O)CCNCc1ccc(-c2ccc3ncnc(Nc4ccc(OCc5cccc(F)c5)c(Cl)c4)c3c2)o1 [lapatinib ditosylate]
TEAD-luciferase reporter activity (compound concentration: 200 nM): inactive: -0.445
TEAD-luciferase reporter activity (compound concentration: 10 uM): inactive: 0.0458

CS(=O)(=O)CCNCc1ccc(-c2ccc3ncnc(Nc4ccc(OCc5cccc(F)c5)c(Cl)c4)c3c2)o1 [lapatinib]
TEAD-luciferase reporter activity (compound concentration: 2 uM): inactive: -1.45

Cc1c(C)c2c(c(C)c1OP(=O)([O-])OC1=C(O)[C@@H]([C@@H](O)CO)OC1=O)CCC(C)(CCCC(C)CCCC(C)CCCC(C)C)O2 (some centres undefined)
TEAD-luciferase reporter activity (compound concentration: 200 nM): inactive: -1.13
TEAD-luciferase reporter activity (compound concentration: 2 uM): inactive: -0.474
TEAD-luciferase reporter activity (compound concentration: 10 uM): inactive: -0.0307

COc1ccc(CCNCC(O)COc2ccc(Cl)cc2Cl)cc1OC (centres undefined)
TEAD-luciferase reporter activity (compound concentration: 200 nM): inactive: -1.22
TEAD-luciferase reporter activity (compound concentration: 2 uM): inactive: -0.885
TEAD-luciferase reporter activity (compound concentration: 10 uM): inactive: -1.61

NC[C@H]1O[C@@H](n2nc(Br)c3c(N)ncnc32)[C@H](O)[C@@H]1O
TEAD-luciferase reporter activity (compound concentration: 200 nM): inactive: -0.467
TEAD-luciferase reporter activity (compound concentration: 2 uM): inactive: -0.491
TEAD-luciferase reporter activity (compound concentration: 10 uM): inactive: -0.756

CCS(=O)(=O)c1ccc(Oc2cc(O[C@@H](C)CO)cc(C(=O)Nc3ccn(C)n3)c2)cn1
TEAD-luciferase reporter activity (compound concentration: 200 nM): inactive: -0.536
TEAD-luciferase reporter activity (compound concentration: 2 uM): inactive: -0.936
TEAD-luciferase reporter activity (compound concentration: 10 uM): inactive: -0.134

COc1ccc(C2NC(=O)C(C)S2)cc1OC (centres undefined) [mezolidon]
TEAD-luciferase reporter activity (compound concentration: 200 nM): inactive: 4.23
TEAD-luciferase reporter activity (compound concentration: 2 uM): inactive: 0.87
TEAD-luciferase reporter activity (compound concentration: 10 uM): inactive: -0.417

CC(=O)NC(CC(=O)NC(CCC(=O)O)C(=O)O)C(=O)O (centres undefined) [Spaglumic acid]
TEAD-luciferase reporter activity (compound concentration: 200 nM): inactive: -1.15
TEAD-luciferase reporter activity (compound concentration: 2 uM): inactive: -0.785
TEAD-luciferase reporter activity (compound concentration: 10 uM): inactive: 2.85

C[C@@H](O[C@H]1OCCN(Cc2n[nH]c(=O)[nH]2)[C@H]1c1ccc(F)cc1)c1cc(C(F)(F)F)cc(C(F)(F)F)c1 [Aprepitant]
TEAD-luciferase reporter activity (compound concentration: 200 nM): inactive: -0.213
TEAD-luciferase reporter activity (compound concentration: 2 uM): inactive: 1.6
TEAD-luciferase reporter activity (compound concentration: 10 uM): inactive: -0.831

O=NN(CCCl)C(=O)NCCCl [carmustine implant, Shandong Lanjin]
TEAD-luciferase reporter activity (compound concentration: 200 nM): inactive: 0.0685
TEAD-luciferase reporter activity (compound concentration: 10 uM): inactive: 0.28

O=NN(CCCl)C(=O)NCCCl [carmustine implant]
TEAD-luciferase reporter activity (compound concentration: 2 uM): inactive: 0.179

CCOP(=O)(CCCCCCOc1ccc(F)cc1OC)OCC
TEAD-luciferase reporter activity (compound concentration: 200 nM): inactive: 0.0445
TEAD-luciferase reporter activity (compound concentration: 2 uM): inactive: -1.51
TEAD-luciferase reporter activity (compound concentration: 10 uM): inactive: 0.511

CC(=O)OCC(COC(C)=O)OCn1cnc2nc(N)ncc21
TEAD-luciferase reporter activity (compound concentration: 200 nM): inactive: -0.748
TEAD-luciferase reporter activity (compound concentration: 2 uM): inactive: -0.223
TEAD-luciferase reporter activity (compound concentration: 10 uM): inactive: 0.319

CC(C=CC1=C(C)CCCC1(C)C)=CC=C1COC(=O)C=C1C
TEAD-luciferase reporter activity (compound concentration: 200 nM): inactive: -0.25
TEAD-luciferase reporter activity (compound concentration: 2 uM): inactive: -0.458
TEAD-luciferase reporter activity (compound concentration: 10 uM): inactive: -0.255

CC(C)(O/N=C(/C(=O)N[C@@H]1C(=O)N2C(C(=O)[O-])=C(C[N+]3(C)Cc4cc(O)c(O)cc4C3)CS[C@H]12)c1csc(N)n1)C(=O)O
TEAD-luciferase reporter activity (compound concentration: 200 nM): inactive: -2.19
TEAD-luciferase reporter activity (compound concentration: 2 uM): inactive: -0.752
TEAD-luciferase reporter activity (compound concentration: 10 uM): inactive: 1.68

Cc1cc(-c2ccc(/N=N/c3c(S(=O)(=O)[O-])cc4cc(S(=O)(=O)[O-])cc(N)c4c3O)c(C)c2)ccc1/N=N/c1c(S(=O)(=O)[O-])cc2cc(S(=O)(=O)[O-])cc(N)c2c1O
TEAD-luciferase reporter activity (compound concentration: 200 nM): inactive: -1.37
TEAD-luciferase reporter activity (compound concentration: 2 uM): inactive: -1.77
TEAD-luciferase reporter activity (compound concentration: 10 uM): inactive: -1.95

Cc1cc(Nc2cc(N3CCN(C)CC3)nc(Sc3ccc(NC(=O)C4CC4)cc3)n2)n[nH]1 [Tozasertib]
TEAD-luciferase reporter activity (compound concentration: 200 nM): active: 9.71
TEAD-luciferase reporter activity (compound concentration: 2 uM): inactive: 0.614
TEAD-luciferase reporter activity (compound concentration: 10 uM): active: 6.84

CCOC(=O)c1cnc(C(C)C)[nH]c1=O
TEAD-luciferase reporter activity (compound concentration: 200 nM): inactive: -1.84
TEAD-luciferase reporter activity (compound concentration: 2 uM): inactive: 1.57
TEAD-luciferase reporter activity (compound concentration: 10 uM): inactive: -0.858

Cc1cccc2nc3cccc(C(=O)NCCNCCNCCNC(=O)c4cccc5nc6cccc(C)c6nc45)c3nc12
TEAD-luciferase reporter activity (compound concentration: 200 nM): inactive: -1.82
TEAD-luciferase reporter activity (compound concentration: 2 uM): inactive: 0.461
TEAD-luciferase reporter activity (compound concentration: 10 uM): inactive: 0.68

CC(C)C[C@H](NC(=O)OCC1c2ccccc2-c2ccccc21)C(=O)O
TEAD-luciferase reporter activity (compound concentration: 200 nM): inactive: -0.745
TEAD-luciferase reporter activity (compound concentration: 2 uM): inactive: -0.0883
TEAD-luciferase reporter activity (compound concentration: 10 uM): active: 5.51

C[C@H](NC(=O)[C@@H](O)c1cc(F)cc(F)c1)C(=O)N[C@@H]1C(=O)N(C)N=Cc2ccccc21
TEAD-luciferase reporter activity (compound concentration: 200 nM): inactive: -0.439
TEAD-luciferase reporter activity (compound concentration: 2 uM): inactive: 0.843
TEAD-luciferase reporter activity (compound concentration: 10 uM): inactive: -0.604
